According to patent US20240141352A1, “CHAPERONIN-CONTAINING TCP-1 INHIBITORS FOR THE TREATMENT OF CANCER” (UNIVERSITY OF CENTRAL FLORIDA RESEARCH FOUNDATION, INC., priority 2021, published 2024):
These are yes or no findings as the source states them, for the method shown. Some binding calls cover weakened binding; strength is not graded here.

Target: T1, CCT2 subunit (UniProt P78371)
T1 sequence (looked up): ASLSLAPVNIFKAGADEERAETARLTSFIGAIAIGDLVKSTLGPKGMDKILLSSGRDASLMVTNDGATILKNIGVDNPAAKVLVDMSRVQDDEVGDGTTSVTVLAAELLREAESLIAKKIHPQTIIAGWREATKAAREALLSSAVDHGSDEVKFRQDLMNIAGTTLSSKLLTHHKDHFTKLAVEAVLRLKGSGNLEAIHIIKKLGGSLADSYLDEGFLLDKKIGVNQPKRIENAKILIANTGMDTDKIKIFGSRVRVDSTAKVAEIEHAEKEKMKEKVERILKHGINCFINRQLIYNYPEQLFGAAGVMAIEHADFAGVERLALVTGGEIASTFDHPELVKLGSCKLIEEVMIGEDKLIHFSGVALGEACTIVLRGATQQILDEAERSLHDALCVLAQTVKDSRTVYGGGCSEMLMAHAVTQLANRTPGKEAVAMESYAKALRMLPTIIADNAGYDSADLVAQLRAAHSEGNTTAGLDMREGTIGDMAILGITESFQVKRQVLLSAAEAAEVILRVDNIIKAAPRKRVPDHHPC
Assay: method not described

binding: binds
Binder: VTIFVAGVLTASLTIWKKMG [CT20p]
